Measured data: PubChem BioAssay AID1224830 (NIAID, 2016)
Assay: 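Regulators of TLR4 signalling towards TNF-alpha in macrophage-like cells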 (primary screen). System: human THP-1 monocytic leukaemia cells, TNF dual-luciferase reporter clone, PMA-differentiated to macrophage-like cells. Reagent: siRNA pool against human genes, 50 nM. Time to read-out: LPS for 4 h, given about 3 days after siRNA transfection. Challenge: bacterial LPS (TLR4 ligand), 10 ng/ml. Detection: 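Ratio of firefly to renilla light, scaled to the plate median and expressed as a robust z-score per replicate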. Direction: TNF reporter robust z-score: higher = stronger TNF reporter response to LPS. Hit rule: 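a well is active when its z-score exceeds 2.8 or falls below -1.5; control wells carry no call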.
The whole screen tested about 18,000 reagents; shown is an unselected part. About 2,900 of all reagents (16%) count as active. 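Calls are made per well; low scores hint the gene aids the LPS response, high scores that it dampens it.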 Repeated entries: four replicate wells of each siRNA pool.

ALX1
- TNF reporter robust z-score: 0.43
- call: inactive

ALX1
- TNF reporter robust z-score: 2.32
- call: inactive

ALX1
- TNF reporter robust z-score: 0.82
- call: inactive

ALX1
- TNF reporter robust z-score: 4.68
- call: active

TAF8
- TNF reporter robust z-score: 1
- call: inactive

TAF8
- TNF reporter robust z-score: 0.13
- call: inactive

TAF8
- TNF reporter robust z-score: 1.72
- call: inactive

TAF8
- TNF reporter robust z-score: -0.22
- call: inactive

SPICE1
- TNF reporter robust z-score: -2.07
- call: active

SPICE1
- TNF reporter robust z-score: -1.92
- call: active

SPICE1
- TNF reporter robust z-score: -1.82
- call: active

SPICE1
- TNF reporter robust z-score: -1.79
- call: active

CHD4
- TNF reporter robust z-score: -1.52
- call: active

CHD4
- TNF reporter robust z-score: -0.34
- call: inactive

CHD4
- TNF reporter robust z-score: -1.4
- call: inactive

CHD4
- TNF reporter robust z-score: -0.63
- call: inactive

RPL29
- TNF reporter robust z-score: 1.02
- call: inactive

RPL29
- TNF reporter robust z-score: 1.62
- call: inactive

RPL29
- TNF reporter robust z-score: 1.36
- call: inactive

RPL29
- TNF reporter robust z-score: 2.26
- call: inactive

NKAIN2
- TNF reporter robust z-score: -0.48
- call: inactive

NKAIN2
- TNF reporter robust z-score: -0.8
- call: inactive

NKAIN2
- TNF reporter robust z-score: -0.92
- call: inactive

NKAIN2
- TNF reporter robust z-score: -0.23
- call: inactive

PGBD3
- TNF reporter robust z-score: 3.61
- call: active

PGBD3
- TNF reporter robust z-score: 1.19
- call: inactive

PGBD3
- TNF reporter robust z-score: -0.32
- call: inactive

PGBD3
- TNF reporter robust z-score: 0.57
- call: inactive

OR2AK2
- TNF reporter robust z-score: -1.17
- call: inactive

OR2AK2
- TNF reporter robust z-score: -1.01
- call: inactive

OR2AK2
- TNF reporter robust z-score: -1.44
- call: inactive

OR2AK2
- TNF reporter robust z-score: -0.68
- call: inactive

MAGT1
- TNF reporter robust z-score: 0.83
- call: inactive

MAGT1
- TNF reporter robust z-score: 1.8
- call: inactive

MAGT1
- TNF reporter robust z-score: 0.59
- call: inactive

MAGT1
- TNF reporter robust z-score: 0.15
- call: inactive

BTF3
- TNF reporter robust z-score: 0.39
- call: inactive

BTF3
- TNF reporter robust z-score: 0.69
- call: inactive

BTF3
- TNF reporter robust z-score: 0.1
- call: inactive

BTF3
- TNF reporter robust z-score: 1.03
- call: inactive

GPR137
- TNF reporter robust z-score: -0.11
- call: inactive

GPR137
- TNF reporter robust z-score: 0.03
- call: inactive

GPR137
- TNF reporter robust z-score: -1.2
- call: inactive

GPR137
- TNF reporter robust z-score: -0.52
- call: inactive

SDC4
- TNF reporter robust z-score: -0.32
- call: inactive

SDC4
- TNF reporter robust z-score: 0.24
- call: inactive

SDC4
- TNF reporter robust z-score: 0.05
- call: inactive

SDC4
- TNF reporter robust z-score: 0.4
- call: inactive

Part of the list above in another layout.
{"gene knocked down": "GPR137", "TNF reporter robust z-score": -0.11, "call": "inactive"}
{"gene knocked down": "GPR137", "TNF reporter robust z-score": 0.03, "call": "inactive"}
{"gene knocked down": "GPR137", "TNF reporter robust z-score": -1.2, "call": "inactive"}
{"gene knocked down": "GPR137", "TNF reporter robust z-score": -0.52, "call": "inactive"}
{"gene knocked down": "SDC4", "TNF reporter robust z-score": -0.32, "call": "inactive"}
{"gene knocked down": "SDC4", "TNF reporter robust z-score": 0.24, "call": "inactive"}
